Reference: patent US20060018893A1
Results are given in words; binding and its absence hold for the method and conditions named. In cells and extracts the contact can be indirect. Some entries that bind do so weakly or less than the wild type. Where a sequence is shown, tags or fusion partners need not be part of it.

Chains of the proteins cited; added tags and fusions are not shown.
UniProt O00459: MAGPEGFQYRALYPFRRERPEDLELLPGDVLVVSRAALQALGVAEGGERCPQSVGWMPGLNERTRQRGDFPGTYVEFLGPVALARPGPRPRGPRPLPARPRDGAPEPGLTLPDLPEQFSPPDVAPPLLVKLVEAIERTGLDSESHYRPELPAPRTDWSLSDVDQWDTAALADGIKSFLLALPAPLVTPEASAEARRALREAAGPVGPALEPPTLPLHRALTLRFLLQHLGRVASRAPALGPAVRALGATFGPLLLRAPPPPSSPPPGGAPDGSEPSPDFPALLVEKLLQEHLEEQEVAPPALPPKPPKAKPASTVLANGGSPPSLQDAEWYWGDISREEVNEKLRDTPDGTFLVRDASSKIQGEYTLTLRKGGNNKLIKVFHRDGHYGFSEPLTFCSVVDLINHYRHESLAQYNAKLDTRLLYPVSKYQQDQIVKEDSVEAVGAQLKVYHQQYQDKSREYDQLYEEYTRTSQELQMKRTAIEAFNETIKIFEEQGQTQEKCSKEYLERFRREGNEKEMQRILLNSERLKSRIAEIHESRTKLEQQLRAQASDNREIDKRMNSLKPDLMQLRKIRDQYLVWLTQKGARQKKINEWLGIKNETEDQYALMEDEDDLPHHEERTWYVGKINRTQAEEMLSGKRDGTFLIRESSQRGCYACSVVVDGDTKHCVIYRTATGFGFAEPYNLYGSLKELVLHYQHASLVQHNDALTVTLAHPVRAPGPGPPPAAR

B1: GST-p110δ (glutathione-S-transferase fusion of human p110δ, expressed in insect cells) (enzyme, not shown: a dimerising Fc or GST)
chain: MPPGVDCPMEFWTKEENQSVVVDFLLPTGVYLNFPVSRNANLSTIKQLLWHRAQYEPLFHMLSGPEAYVFTCINQTAEQQELEDEQRRLCDVQPFLPVLRLVAREGDRVKKLINSQISLLIGKGLHEFDSLCDPEVNDFRAKMCQFCEEAAARRQQLGWEAWLQYSFPLQLEPSAQTWGPGTLRLPNRALLVNVKFEGSEESFTFQVSTKDVPLALMACALRKKATVFRQPLVEQPEDYTLQVNGRHEYLYGSYPLCQFQYICSCLHSGLTPHLTMVHSSSILAMRDEQSNPAPQVQKPRAKPPPIPAKKPSSVSLWSLEQPFRIELIQGSKVNADERMKLVVQAGLFHGNEMLCKTVSSSEVSVCSEPVWKQRLEFDINICDLPRMARLCFALYAVIEKAKKARSTKKKSKKADCPIAWANLMLFDYKDQLKTGERCLYMWPSVPDEKGELLNPTGTVRSNPNTDSAAALLICLPEVAPHPVYYPALEKILELGRHSECVHVTEEEQLQLREILERRGSGELYEHEKDLVWKLRHEVQEHFPEALARLLLVTKWNKHEDVAQMLYLLCSWPELPVLSALELLDFSFPDCHVGSFAIKSLRKLTDDELFQYLLQLVQVLKYESYLDCELTKFLLDRALANRKIGHFLFWHLRSEMHVPSVALRFGLILEAYCRGRTHHMKVLMKQGEALSKLKALNDFVKLSSQKTPKPQTKELMHLCMRQEAYLEALSHLQSPLDPSTLLAEVCVEQCTFMDSKMKPLWIMYSNEEAGSGGSVGIIFKNGDDLRQDMLTLQMIQLMDVLWKQEGLDLRMTPYGCLPTGDRTGLIEVVLRSDTIANIQLNKSNMAATAAFNKDALLNWLKSKNPGEALDRAIEEFTLSCAGYCVATYVLGIGDRHSDNIMIRESGQLFHIDFGHFLGNFKTKFGINRERVPFILTYDFVHVIQQGKTNNSEKFERFRGYCERAYTILRRHGLLFLHLFALMRAAGLPELSCSKDIQYLKDSLALGKTEEEALKHFRVKFNEALRESWKTKVNWLAHNVSKDNRQ
B2: p110δ (human, untagged) (enzyme)
chain: B1 chain

Tests used:
[1] = target: p85γ (55 kDa bovine p85 isoform homologous to p55PIK, p55α and p85/AS53) (bovine) (UniProt O46404); assay: co-expression in insect cells, glutathione-sepharose pull-down, SDS-PAGE and Coomassie staining
[2] = target: p85β (endogenous, human white blood cells / neutrophil cytosol) (human) (UniProt O00459); assay: co-immunoprecipitation from human neutrophil cytosol, Western blot

Binder | binding [1] | binding [2]
B1 | binds | 
B2 |  | binds
